Consider 1 molecule from US20110250207A1 (OREGON HEALTH AND SCIENCE UNIVERSITY, published 2011).

Sequences of proteins named here, by UniProt entry; tags and fusion partners are left off. A change or cut given only in a name is not applied to a line headed by its entry.
UniProt P03951: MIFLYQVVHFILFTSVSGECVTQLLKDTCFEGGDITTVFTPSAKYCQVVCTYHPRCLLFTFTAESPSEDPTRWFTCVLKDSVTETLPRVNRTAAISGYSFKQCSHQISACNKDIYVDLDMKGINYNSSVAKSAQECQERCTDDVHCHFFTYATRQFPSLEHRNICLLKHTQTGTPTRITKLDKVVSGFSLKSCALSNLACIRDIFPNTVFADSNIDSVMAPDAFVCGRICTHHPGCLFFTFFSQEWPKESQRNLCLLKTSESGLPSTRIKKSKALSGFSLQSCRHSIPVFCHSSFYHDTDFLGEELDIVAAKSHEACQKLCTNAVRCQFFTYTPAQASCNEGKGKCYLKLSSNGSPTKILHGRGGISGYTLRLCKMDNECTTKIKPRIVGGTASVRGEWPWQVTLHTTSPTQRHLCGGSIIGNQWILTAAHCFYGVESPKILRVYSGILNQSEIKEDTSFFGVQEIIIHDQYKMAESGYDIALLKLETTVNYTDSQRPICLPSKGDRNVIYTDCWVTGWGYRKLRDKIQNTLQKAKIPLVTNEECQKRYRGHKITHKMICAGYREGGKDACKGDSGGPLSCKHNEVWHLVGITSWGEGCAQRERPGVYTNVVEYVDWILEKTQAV
UniProt P03952: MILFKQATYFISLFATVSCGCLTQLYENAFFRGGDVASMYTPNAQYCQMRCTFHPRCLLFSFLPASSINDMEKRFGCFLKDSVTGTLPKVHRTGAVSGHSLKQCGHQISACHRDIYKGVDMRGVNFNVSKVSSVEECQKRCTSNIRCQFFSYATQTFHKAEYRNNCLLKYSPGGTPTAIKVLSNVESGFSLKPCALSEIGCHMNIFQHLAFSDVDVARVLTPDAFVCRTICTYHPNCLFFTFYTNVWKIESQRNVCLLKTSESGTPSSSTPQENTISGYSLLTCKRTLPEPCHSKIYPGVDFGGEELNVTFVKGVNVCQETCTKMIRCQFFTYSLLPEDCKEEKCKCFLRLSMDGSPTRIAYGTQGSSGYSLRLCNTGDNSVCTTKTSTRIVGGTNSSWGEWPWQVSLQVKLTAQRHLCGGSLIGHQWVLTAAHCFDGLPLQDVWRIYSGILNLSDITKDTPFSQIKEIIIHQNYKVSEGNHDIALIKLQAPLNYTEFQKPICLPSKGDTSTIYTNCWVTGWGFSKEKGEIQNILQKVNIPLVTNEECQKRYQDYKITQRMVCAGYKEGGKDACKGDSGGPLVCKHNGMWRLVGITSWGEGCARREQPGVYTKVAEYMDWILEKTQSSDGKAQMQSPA

Results are given in words; binding and its absence hold for the method and conditions named. Some binding calls cover weakened binding; strength is not graded here.

The target in this assay is human fXI with the human prekallikrein A4 domain (human) (UniProt P03951+P03952). Briefly: immunoblot of fXI/PK chimeras with 14E11 (FIG. 10A). (In western blotting, separated proteins are transferred to a membrane and probed.)

B1: monoclonal antibody 14E11 (antibody, V domains shown)
VH: QVQLEESGPGLVAPSQSLSITCTVSGFSLTGYGIYWVRQPPGKGLEWLGMIWGDGRTDYNSALKSRLSISKDNSKSQVFLKMNSLQTDDTARYYCARDYYGSKDYWGQGTTLTVSS
VL: DIVMTQSHKFMSTSVGDRVSITCKASQDVSTAVAWYQQKPGQSPKLLIYLTSYRNTGVPDRFTGSGSGTDFTFTISSVQAEDLAVYYCQQHYKTPYSFGGGTKLERLR
notes: also called anti-murine fXI IgG 14E11; anti-fXI IgG 14E11
Turning to B1, the binding entry was “binds”.
